The supplement of paper PMC10849652
Some of the results follow.

Chains of the proteins cited; added tags and fusions are not shown. Lines headed by an entry give the natural chain unless they say otherwise; changes in a name come on top.
UniProt P20339: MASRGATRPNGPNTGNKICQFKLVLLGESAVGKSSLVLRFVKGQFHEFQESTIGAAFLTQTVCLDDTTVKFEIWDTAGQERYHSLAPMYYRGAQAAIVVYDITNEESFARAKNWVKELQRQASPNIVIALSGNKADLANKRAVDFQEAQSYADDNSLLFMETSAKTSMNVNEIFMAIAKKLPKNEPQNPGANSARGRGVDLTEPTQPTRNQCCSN
UniProt P43487, whole entry, looked up: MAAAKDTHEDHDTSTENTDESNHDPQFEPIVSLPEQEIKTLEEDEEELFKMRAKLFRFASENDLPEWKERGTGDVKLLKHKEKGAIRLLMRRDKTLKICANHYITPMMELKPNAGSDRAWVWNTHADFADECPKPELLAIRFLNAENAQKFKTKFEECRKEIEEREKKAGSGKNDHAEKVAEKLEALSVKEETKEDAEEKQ
UniProt P62491: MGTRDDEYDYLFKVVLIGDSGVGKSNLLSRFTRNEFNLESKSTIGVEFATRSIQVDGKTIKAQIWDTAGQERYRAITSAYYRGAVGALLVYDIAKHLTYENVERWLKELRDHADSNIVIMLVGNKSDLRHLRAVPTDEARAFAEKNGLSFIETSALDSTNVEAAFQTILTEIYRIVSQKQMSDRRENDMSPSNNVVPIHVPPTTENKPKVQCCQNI
UniProt P61006: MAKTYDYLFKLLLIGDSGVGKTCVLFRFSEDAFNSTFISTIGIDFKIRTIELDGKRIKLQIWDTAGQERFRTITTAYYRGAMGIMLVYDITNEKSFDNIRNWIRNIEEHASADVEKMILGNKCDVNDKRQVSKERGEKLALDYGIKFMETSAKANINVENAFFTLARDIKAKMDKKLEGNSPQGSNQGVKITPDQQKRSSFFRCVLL
UniProt Q8WUD1: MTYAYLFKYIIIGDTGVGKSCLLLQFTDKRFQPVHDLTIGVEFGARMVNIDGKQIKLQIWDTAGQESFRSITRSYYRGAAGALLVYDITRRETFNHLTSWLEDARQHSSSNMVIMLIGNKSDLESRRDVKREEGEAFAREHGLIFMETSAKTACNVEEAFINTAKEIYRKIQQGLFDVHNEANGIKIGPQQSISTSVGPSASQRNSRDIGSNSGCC
UniProt Q5T8P6: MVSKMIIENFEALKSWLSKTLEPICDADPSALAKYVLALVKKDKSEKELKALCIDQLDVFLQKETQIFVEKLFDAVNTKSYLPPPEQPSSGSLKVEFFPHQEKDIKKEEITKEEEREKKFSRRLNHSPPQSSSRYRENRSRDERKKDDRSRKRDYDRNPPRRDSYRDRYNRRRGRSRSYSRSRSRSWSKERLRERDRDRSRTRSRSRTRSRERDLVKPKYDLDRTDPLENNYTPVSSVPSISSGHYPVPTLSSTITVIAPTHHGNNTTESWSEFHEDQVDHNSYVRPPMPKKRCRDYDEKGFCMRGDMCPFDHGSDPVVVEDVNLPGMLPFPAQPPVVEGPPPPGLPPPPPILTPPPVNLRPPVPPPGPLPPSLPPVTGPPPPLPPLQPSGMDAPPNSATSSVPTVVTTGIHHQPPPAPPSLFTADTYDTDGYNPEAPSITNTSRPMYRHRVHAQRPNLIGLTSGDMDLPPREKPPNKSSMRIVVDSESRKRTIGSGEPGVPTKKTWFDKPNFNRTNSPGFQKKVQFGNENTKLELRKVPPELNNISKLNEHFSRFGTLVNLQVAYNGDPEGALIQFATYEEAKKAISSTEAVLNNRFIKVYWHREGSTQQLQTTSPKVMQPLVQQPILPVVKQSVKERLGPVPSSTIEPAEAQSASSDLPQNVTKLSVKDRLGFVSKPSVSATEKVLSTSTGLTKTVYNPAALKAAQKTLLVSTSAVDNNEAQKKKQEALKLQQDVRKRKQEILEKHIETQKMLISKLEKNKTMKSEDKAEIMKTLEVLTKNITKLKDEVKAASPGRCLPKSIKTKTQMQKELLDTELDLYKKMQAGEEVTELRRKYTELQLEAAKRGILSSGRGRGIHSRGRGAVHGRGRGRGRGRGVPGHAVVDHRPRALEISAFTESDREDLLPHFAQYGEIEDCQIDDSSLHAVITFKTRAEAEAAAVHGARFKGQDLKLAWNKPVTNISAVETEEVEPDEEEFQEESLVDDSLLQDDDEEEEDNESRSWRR
UniProt Q96QF0: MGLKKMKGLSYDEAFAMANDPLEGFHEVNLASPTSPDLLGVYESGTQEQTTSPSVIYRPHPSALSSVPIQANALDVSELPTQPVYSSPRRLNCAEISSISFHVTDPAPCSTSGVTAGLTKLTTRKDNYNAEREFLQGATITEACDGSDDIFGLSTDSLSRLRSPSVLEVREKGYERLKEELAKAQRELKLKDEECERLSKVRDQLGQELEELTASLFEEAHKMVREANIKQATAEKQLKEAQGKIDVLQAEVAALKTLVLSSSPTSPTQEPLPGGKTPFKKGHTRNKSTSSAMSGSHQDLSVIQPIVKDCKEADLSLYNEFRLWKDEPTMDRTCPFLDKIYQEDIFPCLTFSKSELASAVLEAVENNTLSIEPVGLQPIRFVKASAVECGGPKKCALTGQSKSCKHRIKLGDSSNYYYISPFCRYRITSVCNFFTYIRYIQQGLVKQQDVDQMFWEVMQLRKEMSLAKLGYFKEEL
UniProt P20336: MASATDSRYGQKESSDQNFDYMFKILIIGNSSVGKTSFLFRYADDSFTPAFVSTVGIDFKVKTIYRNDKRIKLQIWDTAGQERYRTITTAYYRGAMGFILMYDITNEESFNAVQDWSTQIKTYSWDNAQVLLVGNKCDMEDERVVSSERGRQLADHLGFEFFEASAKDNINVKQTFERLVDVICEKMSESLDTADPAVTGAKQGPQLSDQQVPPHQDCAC
UniProt P98179: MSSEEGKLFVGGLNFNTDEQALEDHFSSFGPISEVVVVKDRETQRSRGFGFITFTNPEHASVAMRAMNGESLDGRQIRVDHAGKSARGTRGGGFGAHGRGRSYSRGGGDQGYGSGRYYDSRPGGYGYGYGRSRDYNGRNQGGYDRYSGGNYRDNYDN
UniProt Q96E17: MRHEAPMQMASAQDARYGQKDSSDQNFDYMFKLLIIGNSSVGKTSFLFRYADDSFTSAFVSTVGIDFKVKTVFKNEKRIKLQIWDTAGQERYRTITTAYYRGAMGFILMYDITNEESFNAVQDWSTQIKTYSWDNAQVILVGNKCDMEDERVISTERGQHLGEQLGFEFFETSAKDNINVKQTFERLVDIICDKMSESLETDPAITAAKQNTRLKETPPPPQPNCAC
UniProt P61020: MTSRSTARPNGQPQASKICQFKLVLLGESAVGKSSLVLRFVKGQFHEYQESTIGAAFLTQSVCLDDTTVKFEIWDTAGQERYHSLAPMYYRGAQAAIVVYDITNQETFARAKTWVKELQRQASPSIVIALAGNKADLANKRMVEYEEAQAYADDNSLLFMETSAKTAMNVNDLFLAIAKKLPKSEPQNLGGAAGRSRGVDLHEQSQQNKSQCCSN
UniProt Q9Y3P9: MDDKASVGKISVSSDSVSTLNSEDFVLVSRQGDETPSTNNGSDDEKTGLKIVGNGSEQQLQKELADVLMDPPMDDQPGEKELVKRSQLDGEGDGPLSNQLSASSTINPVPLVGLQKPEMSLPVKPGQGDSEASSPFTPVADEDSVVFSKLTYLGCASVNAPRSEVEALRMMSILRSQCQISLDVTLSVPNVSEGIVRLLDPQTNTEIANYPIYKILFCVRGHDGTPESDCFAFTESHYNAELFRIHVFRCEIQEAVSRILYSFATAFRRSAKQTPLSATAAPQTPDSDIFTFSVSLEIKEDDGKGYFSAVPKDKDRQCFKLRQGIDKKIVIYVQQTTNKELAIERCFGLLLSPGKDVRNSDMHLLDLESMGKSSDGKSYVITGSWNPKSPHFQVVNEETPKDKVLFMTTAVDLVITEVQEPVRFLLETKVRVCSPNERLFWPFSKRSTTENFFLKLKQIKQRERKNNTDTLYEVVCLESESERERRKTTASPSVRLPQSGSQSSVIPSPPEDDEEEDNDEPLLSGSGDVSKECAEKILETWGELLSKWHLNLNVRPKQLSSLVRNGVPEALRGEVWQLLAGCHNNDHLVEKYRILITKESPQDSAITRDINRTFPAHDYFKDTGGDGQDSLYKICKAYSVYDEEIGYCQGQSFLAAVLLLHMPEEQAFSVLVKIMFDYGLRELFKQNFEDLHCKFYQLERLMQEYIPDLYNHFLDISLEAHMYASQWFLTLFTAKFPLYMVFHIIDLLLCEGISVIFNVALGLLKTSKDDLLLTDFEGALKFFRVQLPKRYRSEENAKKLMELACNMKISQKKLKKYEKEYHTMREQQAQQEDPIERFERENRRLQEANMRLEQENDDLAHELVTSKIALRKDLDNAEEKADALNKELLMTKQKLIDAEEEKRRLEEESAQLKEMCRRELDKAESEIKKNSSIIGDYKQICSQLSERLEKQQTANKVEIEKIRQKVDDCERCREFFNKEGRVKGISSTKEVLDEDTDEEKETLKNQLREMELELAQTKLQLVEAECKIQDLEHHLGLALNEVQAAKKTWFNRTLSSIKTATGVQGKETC
UniProt P11234: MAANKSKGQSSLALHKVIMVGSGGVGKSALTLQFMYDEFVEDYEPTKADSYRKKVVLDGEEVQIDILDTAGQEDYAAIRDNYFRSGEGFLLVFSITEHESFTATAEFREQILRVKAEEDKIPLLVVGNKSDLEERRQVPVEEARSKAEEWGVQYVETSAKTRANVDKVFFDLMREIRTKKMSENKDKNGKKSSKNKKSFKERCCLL
UniProt Q53S08: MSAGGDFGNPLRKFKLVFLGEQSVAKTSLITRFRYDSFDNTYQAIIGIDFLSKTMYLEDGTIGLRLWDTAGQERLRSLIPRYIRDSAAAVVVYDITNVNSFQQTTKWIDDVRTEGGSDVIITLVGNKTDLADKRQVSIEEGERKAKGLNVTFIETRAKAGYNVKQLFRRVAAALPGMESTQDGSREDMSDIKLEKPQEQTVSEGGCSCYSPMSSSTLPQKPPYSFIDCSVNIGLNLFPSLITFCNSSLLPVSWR
UniProt Q86YS3: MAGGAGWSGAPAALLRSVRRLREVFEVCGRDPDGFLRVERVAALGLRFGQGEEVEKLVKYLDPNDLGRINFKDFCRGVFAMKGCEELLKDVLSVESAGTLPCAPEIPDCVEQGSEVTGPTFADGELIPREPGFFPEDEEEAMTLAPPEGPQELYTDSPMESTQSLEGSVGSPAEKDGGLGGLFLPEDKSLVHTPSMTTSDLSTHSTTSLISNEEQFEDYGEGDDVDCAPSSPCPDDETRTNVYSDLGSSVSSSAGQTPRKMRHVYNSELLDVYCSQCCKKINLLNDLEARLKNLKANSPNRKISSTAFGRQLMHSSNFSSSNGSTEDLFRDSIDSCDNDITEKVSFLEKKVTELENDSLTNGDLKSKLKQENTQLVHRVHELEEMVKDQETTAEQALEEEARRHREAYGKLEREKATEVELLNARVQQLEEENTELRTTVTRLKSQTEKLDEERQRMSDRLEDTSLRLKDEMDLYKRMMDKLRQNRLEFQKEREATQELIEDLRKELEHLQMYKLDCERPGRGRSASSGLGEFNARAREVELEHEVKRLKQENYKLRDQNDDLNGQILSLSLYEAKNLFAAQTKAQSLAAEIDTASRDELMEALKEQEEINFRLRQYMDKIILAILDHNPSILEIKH
UniProt Q9H6Z4: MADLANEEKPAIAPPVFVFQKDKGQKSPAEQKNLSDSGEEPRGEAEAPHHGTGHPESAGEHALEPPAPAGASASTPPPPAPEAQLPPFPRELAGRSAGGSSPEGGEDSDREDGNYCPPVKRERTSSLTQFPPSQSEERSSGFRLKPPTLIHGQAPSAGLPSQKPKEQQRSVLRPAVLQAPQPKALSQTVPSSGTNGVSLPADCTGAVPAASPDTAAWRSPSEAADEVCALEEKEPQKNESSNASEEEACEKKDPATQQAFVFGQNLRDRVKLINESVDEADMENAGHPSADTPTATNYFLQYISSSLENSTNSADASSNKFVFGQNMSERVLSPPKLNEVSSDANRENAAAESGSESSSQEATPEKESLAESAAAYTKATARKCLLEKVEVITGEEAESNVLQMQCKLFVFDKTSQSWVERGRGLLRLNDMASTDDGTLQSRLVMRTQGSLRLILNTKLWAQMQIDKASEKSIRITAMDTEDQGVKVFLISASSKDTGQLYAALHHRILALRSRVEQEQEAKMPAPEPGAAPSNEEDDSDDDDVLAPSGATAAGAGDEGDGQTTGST
UniProt Q9BTL3: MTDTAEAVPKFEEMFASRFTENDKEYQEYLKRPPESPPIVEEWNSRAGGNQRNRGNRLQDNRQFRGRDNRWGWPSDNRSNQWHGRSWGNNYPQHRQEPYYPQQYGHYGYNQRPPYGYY
UniProt P61225: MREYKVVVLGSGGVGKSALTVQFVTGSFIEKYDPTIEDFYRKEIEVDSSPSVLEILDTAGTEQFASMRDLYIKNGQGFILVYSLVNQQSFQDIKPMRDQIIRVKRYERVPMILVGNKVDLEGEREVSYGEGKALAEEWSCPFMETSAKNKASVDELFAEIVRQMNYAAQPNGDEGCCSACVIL

Legend:
Test in all cases: log2 fold change, soluble protein after heating vs DMSO (PISA); higher = thermal stabilisation; K562 cells, 10 uM, 30 min; active = over 0.2 and 3.5 SD of the protein, either way, in both replicates (recomputed)
[1] = compound: CC1=C(C=C(C=C1)NC(=O)C2=CC(=CC=C2)C(C)(C)C#N)NC3=CC4=C(C=C3)N=CN(C4=O)C
In short: (§1)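 K562 cells at 2×10^6 cells/mL were treated for 30 min with 10 μM compound, and aliquots were heated for 3 min over 48°C-58°C before pooling. Extraction used PBS with 0.5% NP-40 at 4°C, and soluble protein was the supernatant after 21,000xg for 90 min, measured by TMTpro 16plex LC-MS/MS with channel sums equalised. Thermal stability values, relative to control samples and from duplicates, are log2 fold changes.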

[2] = compound: CC1=C(C=C(C=C1)NC(=O)C2=CC(=CC=C2)N(C)C)NC(=O)C3=CC=C(C=C3)O
In short: as §1

[3] = compound: CC1=CC=C(C=C1)SC2=C3C=C(SC3=CN=C2)C(=O)N
In short: as §1

[4] = compound: CC1=NC(=CC=C1)C2=C(N=C(N2)C(C)(C)C)C3=CC4=NC=CN=C4C=C3
In short: as §1

Nexturastat A = compound: CCCCN(Cc1ccc(C(=O)NO)cc1)C(=O)Nc1ccccc1 [Nexturastat A]
In short: as §1

vemurafenib = compound: CCCS(=O)(=O)Nc1ccc(F)c(C(=O)c2c[nH]c3ncc(-c4ccc(Cl)cc4)cc23)c1F [vemurafenib]
In short: as §1

[5] = compound: CCCS(=O)(=O)Nc1ccc(F)c(C(=O)c2c[nH]c3ncc(Cl)cc23)c1F
In short: as §1

[6] = compound: CCCc1cc(C)[nH]c(=O)c1CNC(=O)c1cc(-c2ccnc(N3CCN(C)CC3)c2)cc2c1cnn2C(C)C
In short: as §1

givinostat = compound: CCN(CC)Cc1ccc2cc(COC(=O)Nc3ccc(C(=O)NO)cc3)ccc2c1 [givinostat]
In short: as §1

barasertib = compound: CCN(CCCOc1ccc2c(Nc3cc(CC(=O)Nc4cccc(F)c4)[nH]n3)ncnc2c1)CCOP(=O)(O)O [barasertib]
In short: as §1

[7] = compound: CC[C@@H]1C(=O)N(C)c2cnc(Nc3ccc(C(=O)NC4CCN(C)CC4)cc3OC)nc2N1C1CCCC1
In short: as §1

volasertib = compound: CC[C@@H]1C(=O)N(C)c2cnc(Nc3ccc(C(=O)N[C@H]4CC[C@H](N5CCN(CC6CC6)CC5)CC4)cc3OC)nc2N1C(C)C [volasertib]
In short: as §1

[8] = compound: CC[C@H](C)N1C=C(C2=C(C=C(C=C21)C3=CN=C(C=C3)N4CCNCC4)C(=O)NCC5=C(C=C(NC5=O)C)C)C
In short: as §1

epoxomicin = compound: CC[C@H](C)[C@@H](C(=O)N[C@@H]([C@@H](C)O)C(=O)N[C@@H](CC(C)C)C(=O)[C@]1(CO1)C)NC(=O)[C@H]([C@@H](C)CC)N(C)C(=O)C [epoxomicin]
In short: as §1

[9] = compound: CCn1c(C(=O)N(C2CC2)C2CC2)cc2c3c(ncn3C)c(Nc3cc(C)n(C)n3)nc21
In short: as §1

[10] = compound: CCn1cc(-c2ccnc3[nH]c(-c4cccc(CN(C)C)c4)cc23)c(-c2ccc(NC(=O)N(C)C)cc2)n1
In short: as §1

[11] = compound: CN(C)CC(=O)Nc1ccc2[nH]c(=O)c3ccccc3c2c1
In short: as §1

rosiglitazone = compound: CN(CCOC1=CC=C(C=C1)C[C@H]2C(=O)NC(=O)S2)C3=CC=CC=N3 (racemic) [rosiglitazone]
In short: as §1

[12] = compound: CN1C2=C(C3=C1C(=O)N(N=C3)CC4=CC(=CC=C4)N)SC(=C2)S(=O)C
In short: as §1

[13] = compound: CN1CCC(CNc2ccc3ncc(-c4cccc(OC(F)(F)F)c4)n3n2)CC1
In short: as §1

Measured: log2 fold change

RAB5A (UniProt P20339)
inactive: [1] 0.08 | [2] 0.078 | [3] 0.053 | [4] 0.034 | Nexturastat A -0.168 | vemurafenib 0.089 | [5] 0.064 | [6] 0.022 | givinostat 0.02 | barasertib -0.017 | [7] -0.029 | volasertib -0.047 | [8] 0.005 | epoxomicin 0.024 | [9] 0.018 | [10] -0.005 | [11] 0.063 | rosiglitazone -0.001 | [12] 0.039 | [13] 0.085

RANBP1 (UniProt P43487)
inactive: [1] 0.009 | [2] 0.022 | [3] 0.017 | [4] 0.102 | Nexturastat A -0.106 | vemurafenib 0.002 | [5] 0 | [6] 0.024 | givinostat -0.013 | barasertib 0.015 | [7] -0.022 | volasertib 0.078 | [8] -0.013 | epoxomicin 0.025 | [9] 0.005 | [10] -0.012 | [11] -0.011 | rosiglitazone 0.002 | [12] -0.01 | [13] -0.043

RAB11A (UniProt P62491)
inactive: [1] -0.034 | [2] 0.017 | [3] -0.068 | [4] 0.034 | Nexturastat A -0.148 | vemurafenib -0.074 | [5] -0.164 | [6] 0.097 | givinostat 0.036 | barasertib 0.018 | [7] 0.066 | volasertib -0.005 | [8] -0.033 | epoxomicin 0.195 | [9] -0.026 | [10] 0.091 | [11] -0.054 | rosiglitazone -0.011 | [12] 0.084 | [13] -0.137

Random excerpt: 2 records from the list.
RAB11A (UniProt P62491)
inactive: [1] -0.034 | [2] 0.017 | [3] -0.068 | [4] 0.034 | Nexturastat A -0.148 | vemurafenib -0.074 | [5] -0.164 | [6] 0.097 | givinostat 0.036 | barasertib 0.018 | [7] 0.066 | volasertib -0.005 | [8] -0.033 | epoxomicin 0.195 | [9] -0.026 | [10] 0.091 | [11] -0.054 | rosiglitazone -0.011 | [12] 0.084 | [13] -0.137

RAB5A (UniProt P20339)
inactive: [1] 0.08 | [2] 0.078 | [3] 0.053 | [4] 0.034 | Nexturastat A -0.168 | vemurafenib 0.089 | [5] 0.064 | [6] 0.022 | givinostat 0.02 | barasertib -0.017 | [7] -0.029 | volasertib -0.047 | [8] 0.005 | epoxomicin 0.024 | [9] 0.018 | [10] -0.005 | [11] 0.063 | rosiglitazone -0.001 | [12] 0.039 | [13] 0.085

Following part.

RAB8A (UniProt P61006)
inactive: [1] 0.065 | [2] -0.084 | [3] 0.033 | [4] -0.031 | Nexturastat A -0.031 | vemurafenib -0.016 | [5] 0.012 | [6] 0.001 | givinostat -0.011 | barasertib 0.052 | [7] 0.029 | volasertib -0.008 | [8] -0.053 | epoxomicin -0.026 | [9] 0.023 | [10] 0.013 | [11] -0.013 | rosiglitazone -0.025 | [12] -0.08 | [13] 0.07

RAB2B (UniProt Q8WUD1)
inactive: [1] 0.031 | [2] 0.004 | [3] 0.022 | [4] 0.028 | Nexturastat A -0.076 | vemurafenib 0.023 | [5] 0.042 | [6] 0.084 | givinostat -0.009 | barasertib -0.032 | [7] 0.034 | volasertib 0.01 | [8] 0.037 | epoxomicin 0.027 | [9] -0.007 | [10] -0.03 | [11] -0.013 | rosiglitazone 0.022 | [12] -0.082 | [13] 0.088

RBM26 isoform 3 (UniProt Q5T8P6)
inactive: [1] 0.017

RAB3IP (UniProt Q96QF0)
inactive: [1] 0.127 | [2] 0.077 | [3] 0.067 | [4] -0.042 | Nexturastat A -0.175 | vemurafenib -0.376 | [5] 0.171 | [6] 0.242 | givinostat -0.045 | barasertib -0.077 | [7] -0.18 | volasertib -0.042 | [8] 0.075 | epoxomicin 0.116 | [9] 0.011 | [10] -0.006 | [11] -0.229 | rosiglitazone 0.051 | [12] -0.022 | [13] -0.007

RAB3A (UniProt P20336)
inactive: [1] 0.066 | [2] -0.038 | [3] 0.092 | [4] -0.007 | Nexturastat A 0.05 | vemurafenib -0.19 | [5] -0.042 | [6] -0.123 | givinostat -0.01 | barasertib -0.005 | [7] -0.052 | volasertib 0.083 | [8] 0.061 | epoxomicin 0.087 | [9] -0.017 | [10] -0.041 | [11] -0.003 | rosiglitazone 0.015 | [12] -0.046 | [13] 0.003

RBM3 (UniProt P98179)
inactive: [1] 0.021 | [2] -0.107 | [3] -0.055 | [4] -0.124 | Nexturastat A 0.223 | vemurafenib 0.008 | [5] -0.023 | [6] 0.053 | givinostat -0.054 | barasertib -0.019 | [7] 0.116 | volasertib 0.173 | [8] -0.049 | epoxomicin -0.169 | [9] 0.032 | [10] 0.171 | [11] -0.107 | rosiglitazone -0.162 | [12] 0.178 | [13] 0.244

RAB3C (UniProt Q96E17)
inactive: [1] -0.032 | [2] -0.042 | [3] -0.032 | [4] -0.001 | Nexturastat A -0.107 | vemurafenib -0.005 | [5] -0.019 | [6] 0.004 | givinostat -0.001 | barasertib 0.009 | [7] 0.028 | volasertib 0.08 | [8] -0.013 | epoxomicin -0.019 | [9] 0.055 | [10] 0.049 | [11] -0.053 | rosiglitazone -0.035 | [12] -0.005 | [13] 0.071

RAB5B (UniProt P61020)
inactive: [1] 0.044 | [2] 0.017 | [3] 0.068 | [4] 0.031 | Nexturastat A 0.02 | vemurafenib 0.029 | [5] 0.092 | [6] -0.064 | givinostat 0.033 | barasertib -0.012 | [7] 0.049 | volasertib -0.022 | [8] -0.034 | epoxomicin -0.032 | [9] 0.05 | [10] -0.085 | [11] -0.024 | rosiglitazone 0.009 | [12] -0.121 | [13] 0.003

RABGAP1 (UniProt Q9Y3P9)
inactive: [1] 0.009 | [2] -0.007 | [3] 0.002 | [4] -0.018 | Nexturastat A -0.011 | vemurafenib 0 | [5] 0.023 | [6] 0 | givinostat 0.001 | barasertib 0.062 | [7] -0.016 | volasertib -0.108 | [8] 0.049 | epoxomicin 0.042 | [9] -0.017 | [10] -0.076 | [11] -0.008 | rosiglitazone 0.011 | [12] 0.018 | [13] -0.028

RALB isoform 2 (UniProt P11234)
inactive: [1] -0.018 | [2] 0.044 | [3] 0.026 | [4] 0.001 | Nexturastat A -0.111 | vemurafenib 0.003 | [5] 0 | [6] 0.106 | givinostat -0.002 | barasertib -0.018 | [7] 0.042 | volasertib 0.079 | [8] -0.027 | epoxomicin -0.033 | [9] -0.024 | [10] 0.062 | [11] -0.016 | rosiglitazone -0.002 | [12] -0.077 | [13] 0.083

RAB6D (UniProt Q53S08)
inactive: [1] -0.035 | [2] 0.007 | [3] 0.047 | [4] -0.072 | Nexturastat A -0.16 | vemurafenib -0.016 | [5] -0.052 | [6] -0.006 | givinostat 0.057 | barasertib -0.013 | [7] 0.04 | volasertib 0.001 | [8] -0.086 | epoxomicin -0.056 | [9] -0.014 | [10] -0.037 | [11] -0.017 | rosiglitazone 0.076 | [12] 0.044 | [13] 0.029

RAB11FIP4 (UniProt Q86YS3)
inactive: [1] 0.079

RANBP3 (UniProt Q9H6Z4)
inactive: [1] -0.003 | [2] 0.013 | [3] 0.042 | [4] 0.052 | Nexturastat A -0.08 | vemurafenib 0.016 | [5] 0.054 | [6] -0.013 | givinostat 0.002 | barasertib -0.015 | [7] -0.006 | volasertib 0.037 | [8] -0.009 | epoxomicin 0.032 | [9] 0.022 | [10] -0.032 | [11] 0.005 | rosiglitazone 0.006 | [12] -0.067 | [13] -0.036

RAMAC (UniProt Q9BTL3)
inactive: [1] 0.01 | [2] 0.045 | [3] -0.083 | [4] 0.017 | Nexturastat A 0.032 | vemurafenib 0.03 | [5] -0.063 | [6] -0.018 | givinostat 0.041 | barasertib -0.043 | [7] 0.183 | volasertib 0.215 | [8] -0.067 | epoxomicin -0.086 | [9] 0.016 | [10] 0.11 | [11] -0.032 | rosiglitazone -0.045 | [12] 0.097 | [13] 0.202

RAP2B (UniProt P61225)
inactive: [1] 0.075 | [2] 0.018 | [3] -0.009 | [4] 0.01 | Nexturastat A -0.074 | vemurafenib -0.02 | [5] -0.001 | [6] 0.018 | givinostat -0.001 | barasertib -0.034 | [7] 0.087 | volasertib 0.087 | [8] -0.039 | epoxomicin 0.001 | [9] 0.072 | [10] 0.021 | [11] 0.004 | rosiglitazone -0.017 | [12] -0.022 | [13] 0.208
